Data as given in PMC12595034.

Protein sequences, listed by entry. Tags and fused reporters are not part of them. Lines headed by an entry give the natural chain unless they say otherwise; changes in a name come on top.
UniProt F4IWJ9: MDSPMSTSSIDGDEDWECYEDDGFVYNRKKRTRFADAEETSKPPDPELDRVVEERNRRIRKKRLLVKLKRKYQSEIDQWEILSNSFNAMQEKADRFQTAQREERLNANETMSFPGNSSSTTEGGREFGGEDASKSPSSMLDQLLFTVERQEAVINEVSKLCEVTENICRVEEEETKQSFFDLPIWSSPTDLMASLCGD

Tests used:
Experiment in all cases: affinity purification with mass spectrometry; GSrhino-tagged bait expressed in Arabidopsis cell suspension culture; pull-down in triplicate for each bait, on-bead digest, Q Exactive; hits filtered by NSAF against a large control AP-MS dataset of non-related baits
[1] = target: NGSrhino-CSM1 (Arabidopsis thaliana)
[2] = target: NGSrhino-KNL1 (Arabidopsis thaliana)
[3] = target: DSN1-CGSrhino (Arabidopsis thaliana) (UniProt F4IWJ9)
[4] = target: NGSrhino-DSN1 (Arabidopsis thaliana) (UniProt F4IWJ9)
[5] = target: CSM1-CGSrhino (Arabidopsis thaliana)

Measured: binding

B1: ESD4 (protein, UniProt Q94F30 1-489)
chain: MGAVAINRKRSDESFNFINQQSTNPLRNSPYFQASKKRRFSFAMSEDSGKPASSNPTISRISRYPDAKAPLRREIHAPSRGILRYGKAKSNDYCEKDANFFVRKYDDAKRSALEALRFVNKGKDFVDLGDEVEKEEVVSDDSSVQAIEVIDCDDDEEKKNLQPSFSSGVTDVKKGENFRVEDTSMMLDSLSLDRDVDNDASSLEAYRKLMQSAEKRNSKLEALGFEIVLNEKKLSLLRQSRPKTVEKRVEVPREPFIPLTEDEEAEVYRAFSGRNRRKVLATHENSNIDITGEVLQCLTPSAWLNDEVINVYLELLKERETREPKKYLKCHYFNTFFYKKLVSDSGYNFKAVRRWTTQRKLGYALIDCDMIFVPIHRGVHWTLAVINNRESKLLYLDSLNGVDPMILNALAKYMGDEANEKSGKKIDANSWDMEFVEDLPQQKNGYDCGMFMLKYIDFFSRGLGLCFSQEHMPYFRLRTAKEILRLRAD
binds: all assays above

B2: BUB1MAD3/BMF1 (protein, UniProt F4IVI0 1-525)
chain: MTIGYRDAAGDPLFPWLMEIKNSMEDLYAGKNSGYDLDKLLFDCISTYKKDSRYRNDLRFLKIWFLYLEGREDFERVYREIEETEICKGHSLLYEWYAIFLEVKGLWRRANSVYQTGLSRKAEPFDRLKEAHSLFLQRISKRTKASSLEKVGDDAQATDLETGFVNPWETSTVNGLIHKIKPQLVKYDGYHVSNKVFPGKANLSSLQNYSRNKIIEIGGRKYQMKGCAGQGGFAQVFKAFIDSNPDEVVALKVQKPPFPWEFHMYRQLDCRIPDSQRSSFGLAQRVHVYSDYSILVCDYLSHGTLQDVINSYVVVGKSMEEVLCMYYTIEMLNMLETLHSVGIIHGDFKPDNLLIRYPPENLTETGFHEKTGSWSKKGLCLVDWGRGIDLSLFPRTTEFTGDCRTSGFRCVEMKEDKPWKFQVDTYGLCVIVHMMLHNVYMEIEKKQSLDGGYINMPRTSFKRYWKVDLWKELFTKLLNRETCEDDTETLRNLRKSMEEYICSDPKLMKKLNELLAKQRISLCSS
binds: all assays above

Results are given in words; binding and its absence hold for the method and conditions named. Binding seen in cells or lysates may run through a third protein. These calls come from enrichment with a bait or labelling near it, and not all partners need be listed.
